Reference: PubChem BioAssay AID1259308 (NCATS, 2017)
The whole screen tested about 59,000 reagents; below is a random part of them. About 1,510 of them (2.6%) count as active. 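Calls use total luciferase alone and ignore viability, so some active siRNAs may act by altering cell number.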 A number with no mark means an inactive call. Reagents against one gene are numbered here. Not all columns of the deposit are shown.

- Screen: 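Candidate targets for better recombinant protein yield in mammalian cells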 (primary screen)
- Cells: human HEK293 embryonic kidney cells stably expressing firefly luciferase (HEK-CMV-Luc2-Hygro)
- Reagent: single siRNA against human genes, 0.8 pmol siRNA per well
- Time to read-out: 72 h
- Measured: 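Reporter luminescence and viable-cell signal on separate replicate plates, given as percent of non-targeting control and median/MAD z-scores, plus per-cell luciferase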
- Direction: total luciferase, z-score and total luciferase, % of control: higher = more reporter protein produced
- Call rule: 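An siRNA counts as active if its total luciferase robust z-score exceeds 3; genes with two or more such siRNAs out of three were retested with fresh siRNAs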
- Meaning of the calls: active = raised luciferase; inactive = no rise

no.	target	reagent no.	total luciferase, z-score	total luciferase, % of control
1	ENDOG (GeneID 2021)	1	-0.908	63.8
2	ENDOG (GeneID 2021)	2	-0.718	67.6
3	ENDOG (GeneID 2021)	3	-0.732	67.3
4	CENPW (GeneID 387103)	1	-1.39	54.2
5	CENPW (GeneID 387103)	2	-0.701	67.9
6	CENPW (GeneID 387103)	3	-1.4	54.1
7	FOXS1 (GeneID 2307)	1	1.34	109
8	FOXS1 (GeneID 2307)	2	1.45	111
9	FOXS1 (GeneID 2307)	3	-0.0626	80.6
10	CCDC102A (GeneID 92922)	1	0.747	96.7
11	CCDC102A (GeneID 92922)	2	-0.753	66.9
12	CCDC102A (GeneID 92922)	3	-0.3	75.9
13	CORO1B (GeneID 57175)	1	0.205	86
14	CORO1B (GeneID 57175)	2	-0.617	69.6
15	CORO1B (GeneID 57175)	3	0.672	95.2
16	SAMD7 (GeneID 344658)	1	-0.419	73.5
17	SAMD7 (GeneID 344658)	2	1.18	105
18	SAMD7 (GeneID 344658)	3	-0.872	64.5
19	ELAVL1 (GeneID 1994)	1	0.562	93.1
20	ELAVL1 (GeneID 1994)	2	-0.538	71.2
21	ELAVL1 (GeneID 1994)	3	-0.418	73.6
22	RPS27A (GeneID 6233)	1	-2.84	25.4
23	RPS27A (GeneID 6233)	2	-1.99	42.4
24	RPS27A (GeneID 6233)	3	-3.22	17.9
